Measurements: US20210206856A1

B1: MAdCAM Antibody Table 1 Clone 23 (scFv)
scFv: EVQLLESGGGLVQPGGSLRLSCAASGFTFSSYAMHWVRQAPGKGLEWVSGISGSGGSAYYADSVKGRFTISRDNSKNTLYLQMNSLRAEDTAVYYCATSQAPVDYYYYGMDVWGQGTTVTVSSGGGGSGGGGSGGGGSGGGGSDIQMTQSPSSLSASVGDRVTITCRASQSISSWLAWYQQKPGKAPKLLIYAASNLQRGVPSRFSGSGSGTDFTLTISSLQPEDFATYYCQQSYSIPITFGQGTKVEIK
B2: MAdCAM Antibody Table 1 Clone 59 (scFv)
scFv: EVQLLESGGGLVQPGGSLRLSCAASGFTFSDFWMHWVRQAPGKGLEWISYISGDSGYTNYADSVKGRFTISRDNSKNTLYLQMNSLRAEDTAVYYCARDRPYYYYMDVWGKGTTVTVSSGGGGSGGGGSGGGGSGGGGSDIQMTQSPSSLSASVGDRVTITCRASQSVSRSLAWYQQKPGKAPKLLIYAASSLQSGVPSRFSGSGSGTDFTLTISSLQPEDFATYYCQQYKSYPVTFGQGTKVEIK
B3: MAdCAM Antibody Table 1 Clone 60 (scFv)
scFv: EVQLLESGGGLVQPGGSLRLSCAASGFTFDDYTMHWVRQAPGKGLEWVSDISGSGGSTYYADSVKGRFTISRDNSKNTLYLQMNSLRAEDTAVYYCAKDVVVAGTPLHFDYWGQGTLVTVSSGGGGSGGGGSGGGGSGGGGSDIQMTQSPSSLSASVGDRVTITCQASQDISNYLNWYQQKPGKAPKLLIYAASYLQSGVPSRFSGSGSGTDFTLTISSLQPEDFATYYCQQAHNYPITFGQGTRLEIK
B4: MAdCAM Antibody Table 1 Clone 61 (scFv)
scFv: EVQLLESGGGLVQPGGSLRLSCAASEFTFSNAWMSWVRQAPGKGLEWVASISSTSAYIDYADSVKGRFTISRDNSKNTLYLQMNSLRAEDTAVYYCAREVVGATTFDYWGQGTLVTVSSGGGGSGGGGSGGGGSGGGGSDIQMTQSPSSLSASVGDRVTITCRASQSISTWLAWYQQKPGKAPKLLIYAASSLQSGVPSRFSGSGSGTDFTLTISSLQPEDFATYYCQQANAFPPTFGQGTRLEIK
B5: MAdCAM Antibody Table 1 Clone 63 (scFv)
scFv: EVQLLESGGGLVKPGGSLRLSCAASGFTFDDYAMHWVRQAPGKGLEWVASITSSSAFIDYAASVKGRFTISRDDSKNTLYLQMNSLKTEDTAVYYCARERVDWNSYFDLWGRGTLVTVSSGGGGSGGGGSGGGGSGGGGSEIVMTQSPATLSVSPGERATLSCRASQGISNSYLAWYQQKPGQAPRLLIYGASTRATGIPARFSGSGSGTEFTLTISSLQSEDFAVYYCQQYYTYPPTFGPGTKVDIK
B6: MAdCAM Antibody Table 1 Clone 64 (scFv)
scFv: EVQLLESGGGLVKPGGSLRLSCAASGFAFSSHWMHWVRQAPGKGLEWVAGTSGSGESRDYADFVKGRFTISRDDSKNTLYLQMNSLKTEDTAVYYCARETYYYYYMDVWGKGTTVTVSSGGGGSGGGGSGGGGSGGGGSDIQMTQSPSSLSASVGDRVTITCRASQGISNYLAWYQQKPGKAPKLLIYDAANLEGGVPSRFSGSGSGTDFTLTISSLQPEDFATYYCQQSDIFPPTFGQGTKVEIK
B7: MAdCAM Antibody Table 1 Clone 65 (scFv)
scFv: QVQLVQSGAEVKKPGASVKVSCKASGYTFTRHWIHWVRQAPGQGLEWMGWINVKTGGAGYAQKFQGRVTMTRDTSTSTVYMELSSLRSEDTAVYYCARESSGWYGTDVWGQGTTVTVSSGGGGSGGGGSGGGGSGGGGSDIQMTQSPSSLSASVGDRATITCRASQSISNYLAWYQQKPGKAPKLLIYAASSLQSGVPSRFSGSGSGTDFTLTISSLQPEDFATYYCQQSNSFPLTFGGGTKVEIK
B8: MAdCAM Antibody Table 1 Clone 66 (scFv)
scFv: EVQLLESGGGLVQPGGSLRLSCAASGFTFSSYWMHWVRQAPGKGLEWVAAISYDGKYKDYEDSVKGRFTISRDNSKNTLYLQMNSLRAEDTAVYYCARENKQWLASFDYWGQGTLVTVSSGGGGSGGGGSGGGGSGGGGSDIQMTQSPSSLSASVGDRVTITCQASQDISNFVNWYQQKPGKAPKLLIYAANLRSGVPSRFSGSGSGTDFTLTISSLQPEDFATYYCQQANSFPVTFGPGTKVDIK
B9: MAdCAM Antibody Table 2 Clone 4 (antibody, human IgG1, V domains shown)
VH: QVQLVQSGAEVKKPGASVKVSCKASGGTFSSYAISWVRQAPGQGLEWMGSINPSGDTTSYAQKFQGRVTMTRDTSTSTVYMELSSLRSEDTAVYYCAKDKAQWLVGYFDYWGQGTLVTVSS
VL: DIQMTQSPSSLSASVGDRVTITCQASQDISNSLNWYQQKPGKAPKLLIYAASSLQSGVPSRFSGSGSGTDFTLTISSLQPEDFATYYCQQSYSSVITFGQGTKVEIK
B10: MAdCAM Antibody Table 2 Clone 5 (antibody, human IgG1, V domains shown)
VH: EVQLLESGGGLVQPGGSLRLSCAASGFTFSSYWMHWVRQAPGKGLEWVSSISPGGSNIDYADSVKGRFTISRDNSKNTLYLQMNSLRAEDTAVYYCAREVQLSHYDYWGQGTLVTVSS
VL: DIQMTQSPSSLSASVGDRVTITCRASQGISNSLAWYQQKPGKAPKLLIYGASSLQSGVPSRFSGSGSGTDFTLTISSLQPEDFATYYCQQANSFPFTFGQGTKVEIK
B11: MAdCAM Antibody Table 2 Clone 8 (antibody, human IgG1, V domains shown)
VH: QVQLVQSGAEVKKPGASVKVSCKASGYTFTGYHIHWVRQAPGQGLEWMGIINPSGGSTIYAQKFQGRVTMTRDTSTSTVYMELSSLRSEDTAVYYCAKDWSSWYLGPFDYWGQGTLVTVSS
VL: DIQMTQSPSSLSASVGDRVTITCRASQNISSSLNWYQQKPGKAPKLLIYAASSLQSGVPSRFSGSGSGTDFTLTISSLQPEDFATYYCQQSYTTPYTFGQGTKVEIK
B12: MAdCAM Antibody Table 2 Clone 11 (antibody, human IgG1, V domains shown)
VH: EVQLLESGGGLVQPGGSLRLSCAASGFTFSDYYMNWVRQAPGKGLEWVSVIGESGGSTYYADSVKGRFTISRDNSKNTLYLQMNSLRAEDTAVYYCAADPVSRWPKHGGGDYWGQGTLVTVSS
VL: DIQMTQSPSSLSASVGDRVTITCRASQGISSSLAWYQQKPGKAPKLLIYAASTLQSGVPSRFSGSGSGTDFTLTISSLQPEDFATYYCQQSYSTPWTFGQGTKVEIK
B13: MAdCAM Antibody Table 2 Clone 17 (antibody, human IgG1, V domains shown)
VH: QVQLVQSGAEVKKPGSSVKVSCKASGYTFTDYHIHWVRQAPGQGLEWMGGIVPRSGSTTYAQKFQGRVTITADESTSTAYMELSSLRSEDTAVYYCAKDESSGWYYFDYWGQGTLVTVSS
VL: DIVMTQSPLSLPVTPGEPASISCRSSQSLLHSNGYNYLDWYLQKPGQSPQLLIYSAYNRASGVPDRFSGSGSGTDFTLKISRVEAEDVGVYYCMQALQTPLTFGQGTKVEIK
B14: MAdCAM Antibody Table 2 Clone 20 (antibody, human IgG1, V domains shown)
VH: EVQLLESGGGLVQPGGSLRLSCAASGFTFSDSAMHWVRQAPGKGLEWVSAISGSGSTIYYADSVKGRFTISRDNSKNTLYLQMNSLRAEDTAVYYCVSDIAVAGHWYFDLWGRGTLVTVSS
VL: DIQMTQSPSSLSASVGDRVTITCRASQSISTFLNWYQQKPGKAPKLLIYAASRLEGGVPSRFSGSGSGTDFTLTISSLQPEDFATYYCQQANSFPLTFGPGTKVDIK
B15: MAdCAM Antibody Table 2 Clone 23 (antibody, human IgG1, V domains shown)
VH: EVQLLESGGGLVQPGGSLRLSCAASGFTFDDYAMHWVRQAPGKGLEWVSYIDTSSSHLYYADSVKGRFTISRDNSKNTLYLQMNSLRAEDTAVYYCARDEAAAGYYGMDVWGQGTTVTVSS
VL: DIQMTQSPSSLSASVGDRVTITCQAGQDISNYLNWYQQKPGKAPKLLIYDASNLETGVPSRFSGSGSGTDFTLTISSLQPEDFATYYCQQTYSTPITFGQGTKLEIK

Biological target: cyno MAdCAM protein (cyno)
Experiment: Octet

Row | Binder | binding
1 | B1 | binds
2 | B2 | binds
3 | B3 | binds
4 | B4 | binds
5 | B5 | binds
6 | B6 | binds
7 | B7 | binds
8 | B8 | binds
9 | B9 | binds
10 | B10 | binds
11 | B11 | binds
12 | B12 | binds
13 | B13 | binds
14 | B14 | binds
15 | B15 | binds

No constants are given. Whether binding was seen depends on the method and setting. Binding calls can cover weak binding; strength is not graded here.
